Data taken from ChEMBL document CHEMBL3988442, “University of Dundee, Small-Polar-MMV Screening Library” (2021).

Chains of the proteins cited; added tags and fusions are not shown. Residues count along the entry.
UniProt A4I591, 1-473: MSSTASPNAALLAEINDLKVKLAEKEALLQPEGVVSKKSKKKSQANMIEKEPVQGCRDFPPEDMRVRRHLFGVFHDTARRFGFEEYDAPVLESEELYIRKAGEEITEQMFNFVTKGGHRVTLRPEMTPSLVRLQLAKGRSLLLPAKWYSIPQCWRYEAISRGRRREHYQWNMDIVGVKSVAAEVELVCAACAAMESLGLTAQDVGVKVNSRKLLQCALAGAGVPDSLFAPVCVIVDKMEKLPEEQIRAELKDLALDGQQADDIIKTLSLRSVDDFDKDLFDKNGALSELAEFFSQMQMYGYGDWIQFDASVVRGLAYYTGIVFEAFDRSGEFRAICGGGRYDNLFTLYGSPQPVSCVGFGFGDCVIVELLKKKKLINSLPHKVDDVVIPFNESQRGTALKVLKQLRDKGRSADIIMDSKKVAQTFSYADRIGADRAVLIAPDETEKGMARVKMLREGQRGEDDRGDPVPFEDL
UniProt P9WPC5, whole entry: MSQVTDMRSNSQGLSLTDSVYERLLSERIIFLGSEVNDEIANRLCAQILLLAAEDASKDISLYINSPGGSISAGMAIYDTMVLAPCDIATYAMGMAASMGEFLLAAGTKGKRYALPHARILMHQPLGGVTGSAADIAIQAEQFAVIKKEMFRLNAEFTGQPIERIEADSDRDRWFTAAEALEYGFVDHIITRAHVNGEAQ
UniProt P9WPC3, whole entry partner: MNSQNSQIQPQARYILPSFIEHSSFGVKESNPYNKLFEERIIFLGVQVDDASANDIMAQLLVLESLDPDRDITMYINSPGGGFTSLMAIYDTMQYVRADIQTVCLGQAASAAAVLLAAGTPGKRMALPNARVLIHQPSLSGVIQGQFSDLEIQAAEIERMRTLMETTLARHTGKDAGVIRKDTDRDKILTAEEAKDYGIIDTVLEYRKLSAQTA
UniProt Q4DA54, 1-478: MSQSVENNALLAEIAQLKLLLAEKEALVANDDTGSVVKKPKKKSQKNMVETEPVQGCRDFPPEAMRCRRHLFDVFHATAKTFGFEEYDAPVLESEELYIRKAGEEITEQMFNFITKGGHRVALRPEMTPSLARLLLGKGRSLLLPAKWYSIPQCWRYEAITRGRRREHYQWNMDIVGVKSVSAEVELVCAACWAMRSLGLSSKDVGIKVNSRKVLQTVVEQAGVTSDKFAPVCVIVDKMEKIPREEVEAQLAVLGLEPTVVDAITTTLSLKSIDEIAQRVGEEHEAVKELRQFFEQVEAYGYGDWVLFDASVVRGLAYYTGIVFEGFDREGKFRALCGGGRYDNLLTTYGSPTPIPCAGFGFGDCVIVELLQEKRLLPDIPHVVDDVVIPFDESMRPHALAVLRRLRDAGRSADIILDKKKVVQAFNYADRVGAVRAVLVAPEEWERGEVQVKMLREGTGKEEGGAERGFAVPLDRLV

Toxoplasma: 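Assay of Toxoplasma gondii numbers, read through their beta-galactosidase reporter with a colour substrate. Compounds at 10 µM. The record gives no direction; the compounds picked for IC50 retests had high values, so higher reads as fewer parasites. Size under these conditions: about 67,000 compounds, about 260 of them at 50% or above in at least one test.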
T. brucei: 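Whole-parasite assay of Trypanosoma brucei over 72 hours; the read-out is not stated. Tested at 30 µM. Higher reads as stronger inhibition (inferred: compounds with an IC50 in retests scored well above the rest). Values scatter widely below zero; nearly all retest evidence comes from the higher of the two concentrations used. Size under these conditions: about 64,000 compounds, about 940 of them at 50% or above in at least one test.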
LiHisRS: 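Histidine-tRNA ligase, Leishmania infantum (UniProt A4I591). Enzyme assay of histidyl-tRNA synthetase; the read-out is not stated. Tested at 30 µM. The record gives no direction; compounds that gave an IC50 in retests scored well above the rest, so higher reads as stronger inhibition. The assay is labelled LdHisRS but filed under L. infantum. Of about 69,000 compounds tested this way, about 410 (0.6%) reached 50% or more in at least one test.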
ClpP1P2: 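ClpP1P2, Mycobacterium tuberculosis (UniProt P9WPC5 and UniProt P9WPC3). Protease assay of ClpP1P2, read by the AMC dye that it sets free. Compounds at 50 µM. Direction is inferred from only a few compounds that gave an IC50; most scored high, so higher reads as stronger inhibition. Most other retested compounds had strongly negative values. About 69,000 compounds were tested under these conditions; 0.015% (about 10) showed 50% or more at least once.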
TcHisRS: 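Histidine-tRNA ligase, Trypanosoma cruzi CL Brener (UniProt Q4DA54). Enzyme assay of histidyl-tRNA synthetase; the read-out is not stated. Compounds at 30 µM. Direction is inferred from retests: higher values go with stronger inhibition. Size under these conditions: about 69,000 compounds, about 31 of them at 50% or above in at least one test.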

Values are the deposited “Percent Effect”, in %.
The record does not define 0% and 100%; most values in the screen are far below 50% and negative numbers occur (in some assays of this library far below -100).
Compounds were drawn at random from those tested, without regard to their results.
A dash means the value is not listed here; it may have been measured.

{"compound": "CC(c1nnc(-c2ccccc2)o1)N1CCC(Nc2ccccc2)CC1", "stereo": "stereo unspecified", "Toxoplasma": -9.251, "T. brucei": -26.77, "LiHisRS": 20.48, "ClpP1P2": -14.28, "TcHisRS": 9.453}
{"compound": "O=C(COC1CCOC1)N(CC(F)F)c1cccc(Cl)c1", "stereo": "stereo unspecified", "Toxoplasma": 2.709, "T. brucei": -20, "LiHisRS": 5, "ClpP1P2": -0.3618, "TcHisRS": 4.902}
{"compound": "O=C(NCc1ccc2c(c1)OCO2)c1ccc(N2CCCCCC2)nc1", "Toxoplasma": -3.386, "T. brucei": -3.476, "LiHisRS": 30.77, "ClpP1P2": -4.277, "TcHisRS": 4.819}
{"compound": "Cc1noc(C)c1C(=O)N1CCC2(CC1)CC(Oc1ccccc1)CO2", "stereo": "stereo unspecified", "Toxoplasma": 21.79, "T. brucei": -15.58, "LiHisRS": 29.73, "ClpP1P2": -14.71, "TcHisRS": -1.493}
{"compound": "CNC(=O)c1cnc(/C=C/c2ccc(OC)c(O)c2)s1", "Toxoplasma": -6.906, "T. brucei": -21.56, "LiHisRS": 15.38, "ClpP1P2": 17, "TcHisRS": -12.3}
{"compound": "COc1cc(CNC(=O)N(Cc2ccc(F)cc2F)C2CC2)ccn1", "Toxoplasma": -18.35, "T. brucei": -10.39, "LiHisRS": 5.455, "ClpP1P2": -28, "TcHisRS": 3.509}
{"compound": "CNC(=O)c1cnc(/C=C/c2cc(OC)c(O)c(OC)c2)s1", "Toxoplasma": -4.019, "T. brucei": -40.82, "LiHisRS": 11.61, "ClpP1P2": 27.92, "TcHisRS": 5.172}
{"compound": "Cc1noc(CCCC(=O)NCCc2cc3ccccc3[nH]2)n1", "Toxoplasma": 2.755, "T. brucei": -10.41, "LiHisRS": 15.04, "ClpP1P2": -1.751, "TcHisRS": 2.212}
{"compound": "[H][C@@]12CN(c3cc(OC)ncn3)C[C@H](C(=O)NC3CC3)[C@]1([H])CCO2", "Toxoplasma": -1.109, "T. brucei": -13.36}
{"compound": "CCc1ccc(-c2ncc3c(n2)N(C)CCN(CCN(C)C)C3=O)cc1", "Toxoplasma": -3.568, "T. brucei": 100.5, "LiHisRS": 22.86, "ClpP1P2": -0.5202, "TcHisRS": 6.78}
{"compound": "COCC(=O)N1CC[C@@H]2CN(Cc3cccc(Cl)c3)S(=O)(=O)[C@@H]2CC1", "LiHisRS": 3.774, "ClpP1P2": 9.406, "TcHisRS": 3.784}
{"compound": "CN(C)CCOCC1CN(C(=O)c2cccnc2)Cc2ccnn2C1", "stereo": "stereo unspecified", "Toxoplasma": 8.901, "T. brucei": -11.61, "LiHisRS": 22.86, "ClpP1P2": -12.39, "TcHisRS": 4.902}
{"compound": "CC(C)c1ncc(CN2C[C@@H](CN3CCCCC3)[C@@H](CO)C2)cn1", "Toxoplasma": -6.293, "T. brucei": -16.16, "LiHisRS": 18.18, "ClpP1P2": 2.084, "TcHisRS": 4.348}
{"compound": "CC(C)(C)N1CCN(C(=O)c2cccnc2-n2cncn2)CC1", "Toxoplasma": -4.804, "T. brucei": -40.71, "LiHisRS": 23.29, "ClpP1P2": -3.089, "TcHisRS": 6.897}
{"compound": "Cc1c(C(C)NC(=O)Nc2ccc(F)cc2F)cnn1C", "stereo": "stereo unspecified", "Toxoplasma": 13.04, "T. brucei": 10.76, "LiHisRS": -25.64, "ClpP1P2": -13.31, "TcHisRS": -0.5618}
{"compound": "O=C(NCc1ccc(Cl)s1)c1ccc(N2CCOC2=O)cc1", "Toxoplasma": -0.2401, "T. brucei": -15.53, "LiHisRS": 10.53, "ClpP1P2": 4.748, "TcHisRS": -0.8403}
{"compound": "CCc1nc(C2CCCN2Cc2nc(Cc3ccccc3)no2)no1", "stereo": "stereo unspecified", "Toxoplasma": 3.937, "T. brucei": -8.48, "LiHisRS": 4.959, "ClpP1P2": -6.783, "TcHisRS": -0.8403}
{"compound": "CC(=O)Nc1nc(CN2CCCCC2Cn2cccn2)cs1", "stereo": "stereo unspecified", "Toxoplasma": 0.8547, "T. brucei": 16.1, "LiHisRS": 22.86, "ClpP1P2": -4.995, "TcHisRS": 8.696}
{"compound": "CCC(=O)c1cccc(S(=O)(=O)NC(C)C#N)c1", "stereo": "stereo unspecified", "Toxoplasma": 2.838, "T. brucei": -12.99, "LiHisRS": 3.101, "ClpP1P2": -14.19, "TcHisRS": 5.952}
{"compound": "O=C(O)C(F)(F)F.O=C(O)C(F)(F)F.O=C1COC2(COCCN(Cc3cccnc3)C2)CN1c1ccccc1", "stereo": "stereo unspecified", "Toxoplasma": 9.819, "T. brucei": -60.37}
{"compound": "CCN1CCN(C2CCN(Cc3noc(C4CC4)n3)CC2)C1=O", "Toxoplasma": -32.68, "LiHisRS": 5.085, "ClpP1P2": -12.69, "TcHisRS": 4}

Some entries from above, unchanged:

Compound	Toxoplasma	T. brucei	LiHisRS	ClpP1P2	TcHisRS
O=C(O)C(F)(F)F.O=C(O)C(F)(F)F.O=C1COC2(COCCN(Cc3cccnc3)C2)CN1c1ccccc1 (stereo unspecified)	9.819	-60.37	-	-	-
Cc1noc(CCCC(=O)NCCc2cc3ccccc3[nH]2)n1	2.755	-10.41	15.04	-1.751	2.212